Measured data: PubChem BioAssay AID602196 (INSERM, 2012)
The whole screen tested about 23,000 reagents; this is an unselected part. In the full data, 455 (2%) were called active. 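Active includes both protection and sensitisation; some change values fall well beyond the stated -50 to +50 range.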 Not stated in the record: the amount of reagent.

Assay: 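Genes whose knock-down alters cisplatin killing of lung cancer cells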
Cell system: human A549 lung cancer cells
Reagents: siRNA pair against human genes
Duration: 48 h transfection before cisplatin; time from cisplatin to read-out not stated
Conditions: cisplatin at a dose killing half of control-siRNA cells; exact dose and duration not given
Measured: 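Cisplatin cell death as a shift from the 50% death seen with control siRNA; siRNAs toxic or growth-blocking alone scored 0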
Scale: two-siRNA summed score (-2 to +2): higher = both siRNAs protect from cisplatin killing; -2 means both sensitise; mean protection from cisplatin (shift in death) and protection from cisplatin (shift in death), siRNA C and protection from cisplatin (shift in death), siRNA D: higher = protection from cisplatin killing
Active means: 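siRNAs harmful alone (LDH or WST-1) get 0; others get +1 for less and -1 for more cisplatin killing; genes are active when the two siRNAs give the same sign, summing to ±2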
Calls: active = both siRNAs shift cisplatin killing the same way; inactive = no consistent shift, or siRNA harmful alone

no.	Gene	two-siRNA summed score (-2 to +2)	mean protection from cisplatin (shift in death) (%)	protection from cisplatin (shift in death), siRNA C (%)	protection from cisplatin (shift in death), siRNA D (%)	Outcome
1	PFAS	0	2.9	-2	7.9	inactive
2	USP6NL-AS1	0	4.7	5.7	3.7	inactive
3	GTSF1L	1	10.1	9.4	10.9	inactive
4	EFCAB11	0	2	2.4	1.6	inactive
5	CC2D1A	0	5.7	7.9	3.4	inactive
6	ZMAT2	1	1.8	-8.3	12	inactive
7	LOC440988	0	1.2	1.9	0.5	inactive
8	MEIS3	0	7.4	9.2	5.7	inactive
9	PM20D2	1	4.1	17	-8.8	inactive
10	NFKBIB	0	-1.5	2.7	-5.7	inactive
11	BCAT1	-1	-6.4	-8	-4.7	inactive
12	STX12	-2	-24.2	-16.9	-31.5	active
13	IGSF3	0	6.8	10.6	3.1	inactive
14	SLC7A5P1	1	8.9	-0.2	18.1	inactive
15	HMGCS1	0	5.7	-8.3	19.8	inactive
16	GLE1	2	20.7	22.2	19.2	active
17	MMP24	0	-15.1	0.9	-31	inactive
18	GPX1	0	1.6	14.9	-11.8	inactive
19	ARSG	-1	-22.8	-4.4	-41.3	inactive
20	RNASE2	0	-16.2	-15.7	-16.7	inactive
21	TEX10	-1	-7.4	-12.2	-2.7	inactive
22	LMBRD1	1	5.3	15.1	-4.4	inactive
23	MUCL3	1	12.8	18.1	7.5	inactive
24	C4BPA	1	2.7	18.2	-12.9	inactive
25	LOC345537	0	-2.6	3.4	-8.6	inactive
26	SLC35F2	0	-5.3	-0.4	-10.2	inactive
27	SYVN1	1	15.5	14.7	16.3	inactive
28	FZD5	-1	-10.4	-3.9	-17	inactive
29	PATE2	0	-11.7	-29.6	6.2	inactive
30	LOC391634	1	14.1	15.1	13	inactive
31	CWF19L1	0	10.1	3.8	16.3	inactive
32	EIF2AK3	1	12	14.7	9.3	inactive
33	CRYGA	1	22.6	29.9	15.3	inactive
34	PHYHIP	0	-2.8	-12.9	7.4	inactive
35	AFF4	0	-5.1	-2.5	-7.7	inactive
36	FOXJ3	1	12.3	9.6	15	inactive
37	LRFN5	0	13	11	14.9	inactive
38	LOC441841	1	16.3	7.9	24.8	inactive
39	MRPL30	0	4.4	10.9	-2.2	inactive
40	C1QL4	0	15.9	26.8	5	inactive
41	LOC92196	0	11.1	26.9	-4.8	inactive
42	UGT2B11	1	17.2	12.5	21.8	inactive
43	PRKD3	0	-5.4	-10.4	-0.3	inactive
44	BMPR1B	2	22.5	21.8	23.3	active
45	POM121	0	-0.9	0.7	-2.5	inactive
46	CDC20B	0	5.6	12.8	-1.6	inactive
47	LOC391847	0	4.2	9.6	-1.2	inactive
48	TTC33	0	9.5	6.8	12.1	inactive
49	DACT3	0	8.2	5.8	10.5	inactive
50	TBX21	0	-8.6	-10.5	-6.8	inactive
51	PTPRE	0	-3.2	-8	1.5	inactive
52	LOC387717	1	4.2	10.6	-2.3	inactive
53	C10orf95	0	11.4	24	-1.2	inactive
54	HNRNPF	0	-6.6	-9.5	-3.7	inactive
55	CARMIL1	0	4.4	2.9	6	inactive
56	LOC389441	0	11.4	-4.2	27.1	inactive
57	TMEM109	0	5.8	3.9	7.8	inactive

Just “two-siRNA summed score (-2 to +2)” (7 entries from above):
BCAT1 = -1
STX12 = -2
IGSF3 = 0
SLC7A5P1 = 1
HMGCS1 = 0
GLE1 = 2
MMP24 = 0
